Source: paper PMC5784528

Assays:
[1] = molecular target: T1, flag-tagged DUSP6 truncation mutant 150-205aa (linker region) (human) (UniProt Q16828); test: co-IP; flag-tagged DUSP6 (full length or truncation mutant) co-expressed with HA-tagged PKN2 (0, 3 and 6 μg) in 293 T cells; immunoprecipitated by anti-flag antibody, 4 °C overnight, protein A/G agarose beads; western blot
T1 sequence: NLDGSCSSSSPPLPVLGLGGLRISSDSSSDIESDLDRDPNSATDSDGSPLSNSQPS

[2] = molecular target: T2, flag-tagged full-length wild-type DUSP6 (DUSP6-WT-flag) (human) (UniProt Q16828); test: as above
T2 sequence: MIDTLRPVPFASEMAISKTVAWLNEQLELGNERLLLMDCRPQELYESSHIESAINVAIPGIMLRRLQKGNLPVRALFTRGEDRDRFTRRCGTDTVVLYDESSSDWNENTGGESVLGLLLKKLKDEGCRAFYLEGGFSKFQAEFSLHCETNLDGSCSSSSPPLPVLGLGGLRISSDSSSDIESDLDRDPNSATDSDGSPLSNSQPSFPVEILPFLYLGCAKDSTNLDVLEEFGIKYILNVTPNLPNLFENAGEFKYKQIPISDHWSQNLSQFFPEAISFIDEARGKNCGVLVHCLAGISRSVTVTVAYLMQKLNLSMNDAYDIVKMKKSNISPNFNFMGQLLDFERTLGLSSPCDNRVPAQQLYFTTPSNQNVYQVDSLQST

**Q.** “HA-tagged wild-type PKN2 (PKN2-WT-HA) (human)” was tested. Which binding [1] did it give?
**A.** binds

**Q.** And the binding [2]?
**A.** binds

No constants are given. Whether binding was seen depends on the method and setting. In cells and extracts the contact can be indirect. A result given as binding can be weak or reduced; the word gives no strength. Where a sequence is shown, tags or fusion partners need not be part of it.
